According to patent US20250203808A1, “REFRIGERANTS FOR AND METHODS OF COOLING ELECTRONICS” (HONEYWELL INTERNATIONAL INC., priority 2023, published 2025):

Assay: Global Warming Potential (GWP)

| Structure (SMILES) | GWP (Table 1) | GWP (Table E1) |
| --- | --- | --- |
| F/C=C/C(F)(C(F)(F)F)C(F)(F)F [HFO-1438ezy(E), (E)-1,3,4,4,4-pentafluoro-(3-trifluoromethyl)-but-1-ene] | <10 | <10 |
| F/C=C\C(F)(C(F)(F)F)C(F)(F)F [HFO-1438ezy(Z), (Z)-1,3,4,4,4-pentafluoro-(3-trifluoromethyl)-but-1-ene] | <10 | <10 |
